Test results taken from patent US10822723.
No constants are given. Whether binding was seen depends on the method and setting. For some of these results: In cells and extracts the contact can be indirect. Some entries that bind do so weakly or less than the wild type. Sequences can lack the tags named with a protein.

Tests used:
[1] = biological target: Flag-PAK4cat, catalytic domain of human PAK4 expressed in mammalian cells (human) (UniProt O96013); experiment: co-expression in mammalian cells, co-crystals, immuno-staining
[2] = biological target: FLAG-tagged wild type PAK4 (human) (UniProt O96013); experiment: co-immunoprecipitation
[3] = biological target: T1, FLAG-tagged activated PAK4 with a mutated AID, PAK4* (RR48/49AE) (human) (UniProt O96013); experiment: co-immunoprecipitation from mammalian cell lysates, anti-Flag Sepharose, anti-HA Western
T1 sequence (looked up): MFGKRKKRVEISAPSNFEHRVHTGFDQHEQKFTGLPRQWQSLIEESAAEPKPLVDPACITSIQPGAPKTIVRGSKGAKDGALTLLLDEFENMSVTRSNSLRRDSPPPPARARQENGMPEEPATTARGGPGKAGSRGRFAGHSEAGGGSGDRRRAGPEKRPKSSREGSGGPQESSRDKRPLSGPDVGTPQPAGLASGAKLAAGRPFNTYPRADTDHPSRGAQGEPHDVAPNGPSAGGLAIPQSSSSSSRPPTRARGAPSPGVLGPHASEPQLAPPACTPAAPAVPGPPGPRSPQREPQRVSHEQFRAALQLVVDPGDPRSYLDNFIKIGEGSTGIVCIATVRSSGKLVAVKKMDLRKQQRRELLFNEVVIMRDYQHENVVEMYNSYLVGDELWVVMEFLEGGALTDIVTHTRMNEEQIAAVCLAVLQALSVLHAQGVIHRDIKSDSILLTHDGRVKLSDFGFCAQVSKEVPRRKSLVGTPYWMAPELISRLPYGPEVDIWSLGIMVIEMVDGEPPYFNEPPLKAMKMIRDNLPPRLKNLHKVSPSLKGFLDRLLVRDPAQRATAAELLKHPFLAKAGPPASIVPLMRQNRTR

[4] = biological target: FLAG-tagged wild type PAK4 (human) (UniProt O96013); experiment: as above
[5] = biological target: Flag-PAK4cat, catalytic domain of human PAK4 expressed in mammalian cells (human) (UniProt O96013); experiment: co-expression in mammalian cells, fluorescent co-crystals
[6] = biological target: Flag-PAK4cat, catalytic domain of human PAK4 expressed in mammalian cells (human) (UniProt O96013); experiment: co-expression with PAK4cat in mammalian cells, formation of co-crystals

B1: full-length HA-Inka1 (human Inka1, FAM212A) (protein, UniProt Q96EL1 1-285, looked up, not shown: small tags and cut ends)
chain: MDMHSARLDSFLSQLRWELLCGRDTGSPSMPGPLQPTSQTGPDVQPSHQLRASGALEEDSVCCVEEEEEEEEEAVVTEDRDAALGGPREHALDWDSGFSEVSGSTWREEELPVSQRPAPSAQPLRRQCLSVSGLPMPSRAPVASVPPVHHPRPKSTPDACLEHWQGLEAEDWTAALLNRGRSRQPLVLGDNCFADLVHNWMELPETGSEGGDGGGHRARARPPQFLLGLSEQLRRRLARARRTAMAGKRLSCPPRPEPELPADVSRFAALMSCRSRQPIICNDVS
In the case of B1, the binding [1] is reported as “binds”, the binding [2] is reported as “binds” and the binding [3] is reported as “binds”. The binding [4] was “binds”.

B2: GFP-Inka1 (protein, human, UniProt Q96EL1 1-287, looked up, not shown: large carriers)
chain: MDMHSARLDSFLSQLRWELLCGRDTGSPSMPGPLQPTSQTGPDVQPSHQLRASGALEEDSVCCVEEEEEEEEEAVVTEDRDAALGGPREHALDWDSGFSEVSGSTWREEELPVSQRPAPSAQPLRRQCLSVSGLPMPSRAPVASVPPVHHPRPKSTPDACLEHWQGLEAEDWTAALLNRGRSRQPLVLGDNCFADLVHNWMELPETGSEGGDGGGHRARARPPQFLLGLSEQLRRRLARARRTAMAGKRLSCPPRPEPELPADVSRFAALMSCRSRQPIICNDVSYL
For B2, the binding [5] was “binds”.

B3: HA-tagged Inka1 (165-285) (protein, human, UniProt Q96EL1 165-285, looked up, not shown: small tags and cut ends)
chain: QGLEAEDWTAALLNRGRSRQPLVLGDNCFADLVHNWMELPETGSEGGDGGGHRARARPPQFLLGLSEQLRRRLARARRTAMAGKRLSCPPRPEPELPADVSRFAALMSCRSRQPIICNDVS
In the case of B3, the binding [6] is reported as “binds”.

B4: HA-tagged Inka1 (255-285), the C-terminal 31 amino acid of Inka1 (peptide, human, UniProt Q96EL1 255-285, looked up, not shown: small tags and cut ends)
chain: RPEPELPADVSRFAALMSCRSRQPIICNDVS
B4 was tested, and the binding [6] was “binds”.
